Measured values as given in patent US6770467B2, “Screening method for ligands with class II P13 kinase modulating activity” (Ludwig Institute for Cancer Research, priority 1997, dated 2004).
At least one structure is not confirmed: it was looked up by name or label, or the drawing left a doubt.

The chains behind the UniProt entries cited, without tags or fusion partners. Residues count along the entry.
UniProt O00443, 148-1686: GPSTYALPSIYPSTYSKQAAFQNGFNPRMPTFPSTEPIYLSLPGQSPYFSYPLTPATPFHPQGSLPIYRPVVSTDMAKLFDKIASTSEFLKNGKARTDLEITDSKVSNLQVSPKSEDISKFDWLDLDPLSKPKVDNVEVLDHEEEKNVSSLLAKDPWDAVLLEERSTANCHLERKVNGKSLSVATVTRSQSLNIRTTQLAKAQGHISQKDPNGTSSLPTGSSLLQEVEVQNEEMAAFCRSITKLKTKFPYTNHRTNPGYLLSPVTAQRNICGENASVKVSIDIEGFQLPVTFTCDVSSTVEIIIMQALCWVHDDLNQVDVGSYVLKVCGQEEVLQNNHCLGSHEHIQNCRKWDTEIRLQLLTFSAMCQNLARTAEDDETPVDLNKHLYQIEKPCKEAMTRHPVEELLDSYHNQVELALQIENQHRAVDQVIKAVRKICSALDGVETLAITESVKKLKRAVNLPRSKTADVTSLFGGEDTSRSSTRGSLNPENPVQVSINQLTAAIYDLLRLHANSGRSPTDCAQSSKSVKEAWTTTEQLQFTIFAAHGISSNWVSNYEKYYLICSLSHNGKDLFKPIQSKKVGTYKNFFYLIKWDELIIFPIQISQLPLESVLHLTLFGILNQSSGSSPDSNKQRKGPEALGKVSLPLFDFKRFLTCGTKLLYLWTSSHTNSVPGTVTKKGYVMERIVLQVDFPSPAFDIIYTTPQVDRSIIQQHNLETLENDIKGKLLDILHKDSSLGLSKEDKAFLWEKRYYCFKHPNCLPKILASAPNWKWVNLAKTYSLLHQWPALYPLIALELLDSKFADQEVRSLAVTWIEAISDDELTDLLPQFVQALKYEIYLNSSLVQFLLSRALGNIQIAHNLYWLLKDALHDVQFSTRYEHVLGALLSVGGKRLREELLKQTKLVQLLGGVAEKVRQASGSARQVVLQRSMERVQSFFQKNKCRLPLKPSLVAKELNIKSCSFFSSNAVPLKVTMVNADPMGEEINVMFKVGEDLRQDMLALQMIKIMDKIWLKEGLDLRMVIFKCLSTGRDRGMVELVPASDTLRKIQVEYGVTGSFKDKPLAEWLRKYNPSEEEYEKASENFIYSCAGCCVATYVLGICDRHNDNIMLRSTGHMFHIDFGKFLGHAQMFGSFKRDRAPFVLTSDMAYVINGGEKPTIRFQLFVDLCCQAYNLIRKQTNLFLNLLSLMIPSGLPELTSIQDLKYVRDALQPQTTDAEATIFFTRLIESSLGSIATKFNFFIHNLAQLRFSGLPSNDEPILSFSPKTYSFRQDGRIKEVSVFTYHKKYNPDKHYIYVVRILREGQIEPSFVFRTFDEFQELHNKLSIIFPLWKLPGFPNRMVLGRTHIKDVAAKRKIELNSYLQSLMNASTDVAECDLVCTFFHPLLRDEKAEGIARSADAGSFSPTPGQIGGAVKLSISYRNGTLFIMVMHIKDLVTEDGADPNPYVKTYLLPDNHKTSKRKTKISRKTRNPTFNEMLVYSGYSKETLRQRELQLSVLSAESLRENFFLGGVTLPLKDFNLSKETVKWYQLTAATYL

Molecular target: T1, PI3K-C2α (Homo sapiens, UniProt O00443)
T1 construct: made in house; host or cells: Sf9 insect cells (baculovirus, pAcGex vector)
Experiment: PI 3-kinase lipid kinase assay with recombinant GST-PI3K-C2α, PtdIns as substrate
Type: biochemical
Conditions: Wortmannin

SMILES: COC[C@H]1OC(=O)c2coc3c2[C@@]1(C)C1=C(C3=O)[C@@H]2CCC(=O)[C@@]2(C)C[C@H]1OC(C)=O [Wortmannin]
- concentration giving maximal inhibition of PI3K-C2α: 10 µM
